Measurements: patent US8324177B2, “Triterpene compositions and methods for use thereof” (Research Development Foundation, priority 1998, dated 2012)

Key:
[1] = test system: Acacia victoriae shoot tips; assay: Multiple shoot induction in shoot tip cultures
[2] = test system: Acacia victoriae hairy roots; assay: Growth of hairy root cultures in liquid medium

| Structure (SMILES) | Multiple shoots, average ([1]; 1.3 mg/L) | Shoot Length ([1]; MS, BA 1.3 mg/L, IAA 0 mg/L) | Average No. of shoots per shoot tip ([1]; MS, BA 1.3 mg/L, IAA 0 mg/L, 18 replicates + SE) | Growth of hairy roots, fold increase ([2]; carbon source 2% (w/v) in MS medium) | Fresh weight after 4 weeks ([2]; carbon source 2% W/V in MS medium, initial F.W. 300 mg) |
| --- | --- | --- | --- | --- | --- |
| c1ccc(CNc2ncnc3[nH]cnc23)cc1 [BA] | 3.94 shoots/culture | 8.6 ± 3.0258 cm | 3.94 + 1.846 |  |  |
| OC[C@H]1O[C@@](CO)(O[C@H]2O[C@H](CO)[C@@H](O)[C@H](O)[C@H]2O)[C@@H](O)[C@@H]1O [sucrose] |  |  |  | 24.52 fold | 7.356 ± 0.543^c gm |

Marks after values point to notes of the source that are not given here.
